In assay [1] the target is BubR1/Bub3 complex (3×FLAG–BubR1 with untagged Bub3) (UniProt O60566). Kind of assay: MST; RED-…-labelled complex (25, 12.5 or 4 nM) with twofold serial dilutions of peptide; 50 mM Tris pH 7.8, 50 mM NaCl, 0.5 mM TCEP, 0.05% Tween 20; 40% MST power; NanoTemper Monolith NT.115; both purified.
The target in assay [2] is Bub1(1–553)/Bub3 complex (3×FLAG–Bub1(1–553) with untagged Bub3) (UniProt O43683). The assay is described as above.

Amino acid sequences for entries named in this document (tags omitted). A change or cut given only in a name is not applied to a line headed by its entry.
UniProt O60566: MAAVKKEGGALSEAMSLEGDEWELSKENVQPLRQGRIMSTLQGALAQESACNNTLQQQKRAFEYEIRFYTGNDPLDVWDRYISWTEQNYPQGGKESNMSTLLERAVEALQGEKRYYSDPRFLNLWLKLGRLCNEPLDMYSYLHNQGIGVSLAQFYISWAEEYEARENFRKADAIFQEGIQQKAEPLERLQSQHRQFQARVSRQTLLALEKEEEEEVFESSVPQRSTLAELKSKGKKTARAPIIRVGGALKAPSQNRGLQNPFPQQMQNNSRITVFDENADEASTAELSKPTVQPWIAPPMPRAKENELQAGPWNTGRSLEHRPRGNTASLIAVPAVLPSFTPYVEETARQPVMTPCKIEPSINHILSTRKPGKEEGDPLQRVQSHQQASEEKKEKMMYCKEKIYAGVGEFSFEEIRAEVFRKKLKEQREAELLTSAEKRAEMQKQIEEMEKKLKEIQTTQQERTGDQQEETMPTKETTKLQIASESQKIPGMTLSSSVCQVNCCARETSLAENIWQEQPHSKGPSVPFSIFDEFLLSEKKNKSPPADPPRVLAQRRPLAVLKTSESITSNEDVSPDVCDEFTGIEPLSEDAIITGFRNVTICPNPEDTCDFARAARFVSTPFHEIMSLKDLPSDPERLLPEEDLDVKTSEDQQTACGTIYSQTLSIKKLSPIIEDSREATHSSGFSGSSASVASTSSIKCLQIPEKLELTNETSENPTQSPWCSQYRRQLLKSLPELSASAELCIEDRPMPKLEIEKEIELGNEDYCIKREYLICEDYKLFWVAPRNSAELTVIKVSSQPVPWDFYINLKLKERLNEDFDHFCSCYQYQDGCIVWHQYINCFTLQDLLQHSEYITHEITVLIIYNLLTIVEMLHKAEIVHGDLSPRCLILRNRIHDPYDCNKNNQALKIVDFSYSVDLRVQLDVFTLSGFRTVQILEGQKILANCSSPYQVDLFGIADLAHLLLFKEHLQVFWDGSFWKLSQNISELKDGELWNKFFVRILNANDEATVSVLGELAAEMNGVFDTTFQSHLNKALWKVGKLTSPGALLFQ
UniProt O43683: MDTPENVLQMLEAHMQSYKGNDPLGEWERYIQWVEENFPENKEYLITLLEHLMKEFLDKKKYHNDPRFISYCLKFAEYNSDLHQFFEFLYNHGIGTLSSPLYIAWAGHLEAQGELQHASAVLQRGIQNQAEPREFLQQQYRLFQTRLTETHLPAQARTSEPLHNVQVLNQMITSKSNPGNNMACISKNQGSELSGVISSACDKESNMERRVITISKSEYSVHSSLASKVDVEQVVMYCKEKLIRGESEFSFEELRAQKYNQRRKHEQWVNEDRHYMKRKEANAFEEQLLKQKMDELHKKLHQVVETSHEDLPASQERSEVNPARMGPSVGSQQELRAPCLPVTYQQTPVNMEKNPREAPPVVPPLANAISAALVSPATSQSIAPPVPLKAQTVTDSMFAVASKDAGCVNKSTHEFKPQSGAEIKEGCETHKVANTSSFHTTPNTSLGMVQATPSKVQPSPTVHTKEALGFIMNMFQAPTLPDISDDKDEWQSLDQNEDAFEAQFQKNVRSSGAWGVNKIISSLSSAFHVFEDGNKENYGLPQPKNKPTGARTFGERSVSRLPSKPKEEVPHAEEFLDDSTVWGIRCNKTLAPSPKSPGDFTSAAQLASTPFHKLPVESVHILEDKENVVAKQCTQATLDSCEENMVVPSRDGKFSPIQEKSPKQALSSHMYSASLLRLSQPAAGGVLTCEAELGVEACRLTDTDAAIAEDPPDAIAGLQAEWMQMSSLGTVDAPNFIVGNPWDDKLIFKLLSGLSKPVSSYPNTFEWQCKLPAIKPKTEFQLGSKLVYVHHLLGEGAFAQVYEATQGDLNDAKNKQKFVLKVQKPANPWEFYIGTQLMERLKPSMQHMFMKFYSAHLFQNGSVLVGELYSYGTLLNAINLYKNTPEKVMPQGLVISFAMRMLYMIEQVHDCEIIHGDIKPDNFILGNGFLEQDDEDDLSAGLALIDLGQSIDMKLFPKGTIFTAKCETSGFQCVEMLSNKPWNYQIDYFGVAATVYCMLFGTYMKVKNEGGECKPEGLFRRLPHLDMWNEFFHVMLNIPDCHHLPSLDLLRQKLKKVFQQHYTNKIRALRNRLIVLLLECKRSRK

Drawing on article PMC4963475, “Two functionally distinct kinetochore pools of BubR1 ensure accurate chromosome segregation” (Nature Communications, 2016), this text covers binding for one molecule.

Results are given in words; binding and its absence hold for the method and conditions named.

B1: MELT18p peptide, …-Tp-DSHTVFID-amide (peptide)
peptide: TDNYSDLEVTDSHTVFID
modifications: phosphothreonine (Tp) at position 10; C-terminal amide
Take B1: the binding result in assay [1] and in assay [2] was “no binding” in each case.
